# Data: the supplement of paper PMC6414424
# ± gives the standard deviation of the averaged measurements. The list shows a part of the results.
# Tested on: APPdp1-6 iPSC-derived neurons
# Test: pThr231Tau/total Tau ratio Z-score vs DMSO vehicle wells; higher = more pThr231Tau relative to total Tau
# Conditions: 5 µM; treatment time 5 days
row,SMILES,pThr231Tau/total Tau ratio Z-score
1,COc1ccccc1N1CCN(CCCNc2cc(=O)n(C)c(=O)n2C)CC1 [Prestw-905],-0.218 ± 2.2
2,Cn1c(=O)c2c(ncn2CCO)n(C)c1=O [Prestw-172],-0.147 ± 0.45
3,CC(C)NCC(O)c1cc(O)cc(O)c1 (centres undefined) [Prestw-505],-0.286 ± 0.35
4,O=C(O)CN(CCN(CC(=O)O)CC(=O)O)CCN(CC(=O)O)CC(=O)O [Prestw-941],0.104 ± 1.1
5,C#CCN(C)CCCOc1ccc(Cl)cc1Cl [Prestw-344],1.33 ± 1.1
6,CCCn1cnc2c1c(=O)n(CCCCC(C)=O)c(=O)n2C,0.386 ± 0.34
7,CN1CCCN=C1/C=C/c1cccs1 [Prestw-212],-0.217 ± 0.88
8,CN1CCCN=C1/C=C/c1cccs1 [PYRANTEL PAMOATE    Therap cat:  Anthelmintic (Nematodes)],0.294 ± 0.78
9,CCC[C@@H]1C[C@@H](C(=O)N[C@@H]([C@H]2O[C@H](SC)[C@H](O)[C@@H](O)[C@H]2O)[C@@H](C)O)N(C)C1 [Prestw-302],0.114 ± 1.3
10,C#C[C@]1(O)CC[C@H]2[C@@H]3CCC4=Cc5oncc5C[C@]4(C)[C@H]3CC[C@@]21C [Prestw-105],-1.1 ± 0.024
11,"CO[C@H]1C[C@H](O[C@@H]2/C(C)=C/C[C@@H]3C[C@@H](C[C@]4(CC[C@H](C)[C@@H](C5CCCCC5)O4)O3)OC(=O)[C@@H]3C=C(C)/C(=N\O)[C@H]4OC/C(=C\C=C\[C@@H]2C)[C@]43O)O[C@@H](C)[C@@H]1O [SELAMECTIN, antiparasitic, antimite]",0.3 ± 1.8
12,CCOc1ccc(Cc2nccc3cc(OCC)c(OCC)cc23)cc1OCC [Prestw-830],-1.02 ± 0.43
13,O=C(Nc1ccc([N+](=O)[O-])cc1Cl)c1cc(Cl)ccc1O [Prestw-40],-3.98 ± 0.19
14,CC1CNc2c(cccc2S(=O)(=O)N[C@@H](CCCN=C(N)N)C(=O)N2CC[C@@H](C)C[C@@H]2C(=O)O)C1 (some centres undefined) [Prestw-1228],0.14 ± 0.029
15,CC12CC3CC(C)(C1)CC(N)(C3)C2 [Prestw-978],-0.933 ± 1.4
16,CCN1CCCC1CNC(=O)c1cc(S(N)(=O)=O)ccc1OC (centres undefined) [Prestw-56],1.37 ± 0.28
17,CCN1CCCC1CNC(=O)c1cc(S(N)(=O)=O)ccc1OC (centres undefined),2.44 ± 3
18,CCCCc1oc2ccccc2c1C(=O)c1cc(I)c(OCCN(CC)CC)c(I)c1 [Prestw-409],-1.01 ± 0.42
19,O=C(O)c1cccnc1 [Prestw-881],1.38 ± 0.21
20,Cc1cccc(N(C)C(=S)Oc2ccc3ccccc3c2)c1 [Prestw-70],2.27 ± 2.8
21,O=c1[nH]c(=O)n([C@H]2C[C@H](O)[C@@H](CO)O2)cc1I [Prestw-18],-0.0434 ± 0.55
22,CC1(C)O[C@@H]2C[C@H]3[C@@H]4C[C@H](F)C5=CC(=O)CC[C@]5(C)[C@H]4[C@@H](O)C[C@]3(C)[C@]2(C(=O)CO)O1 [Prestw-645],0.365 ± 0.46
23,CCC(=O)OCC(=O)[C@@]1(OC(=O)CC)[C@@H](C)C[C@H]2[C@@H]3CCC4=CC(=O)C=C[C@]4(C)[C@@]3(F)[C@@H](O)C[C@@]21C,1.32 ± 1.4
24,"Cc1[nH]c(C)c(Cl)c(=O)c1Cl [CLOPIDOL, coccidiostat, antiplatelet]",-2.54 ± 1.7
25,O=C1N=C(O)CN1/N=C/c1ccc(-c2ccc([N+](=O)[O-])cc2)o1 [Prestw-291],-0.549 ± 0.52
26,NNC(=O)c1ccncc1 [Prestw-161],-1.13 ± 0.75
27,Cc1c(Nc2ncccc2C(=O)O)cccc1C(F)(F)F [Prestw-744],0.438 ± 0.1

row,SMILES,pThr231Tau/total Tau ratio Z-score
1,CC[C@H](c1ccc(O)cc1)[C@@H](CC)c1ccc(O)cc1 [Prestw-699],-0.703 ± 0.94
2,CC(=O)OCC(=O)[C@@]1(O)CC[C@H]2[C@@H]3CCC4=CC(=O)C=C[C@]4(C)[C@H]3[C@@H](O)C[C@@]21C [PREDNISOLONE ACETATE    Therap cat:  Glucocorticoid],1.6 ± 0.65
3,C[C@]12CCC(=O)C=C1CC[C@@H]1[C@@H]2[C@@H](O)C[C@@]2(C)[C@H]1CC[C@]2(O)C(=O)COP(=O)(O)O,-0.767 ± 1.5
4,CC1(C)O[C@@H]2C[C@H]3[C@@H]4C[C@H](F)C5=CC(=O)C=C[C@]5(C)[C@H]4[C@@H](O)C[C@]3(C)[C@]2(C(=O)CO)O1 [Prestw-643],-1.22 ± 0.82
5,C[C@H](CS)C(=O)N1CCC[C@H]1C(=O)O [Prestw-19],0.928 ± 1.8
6,CN(Cc1cc(Br)cc(Br)c1N)C1CCCCC1 [Prestw-1246],-0.273 ± 0.14
7,NCCc1ccc(O)c(O)c1 [Prestw-1398],0.536 ± 0.44
8,COc1ccnc(C[S+]([O-])c2nc3ccc(OC(F)F)cc3[nH]2)c1OC (centres undefined),0.611 ± 0.48
9,CC(C)C(=O)c1c(C(C)C)nn2ccccc12 [Prestw-1286],0.828 ± 0.21
10,C[N+](C)(C)C[C@H](O)CC(=O)[O-],1.95 ± 2.7
11,OC(CCN1CCCC1)(c1ccccc1)C1CCCCC1 (centres undefined) [Prestw-844],0.203 ± 0.7
12,CC(C)NCC(O)COc1cccc2[nH]ccc12 (centres undefined) [Prestw-90],1.48 ± 1.3
13,CC(CN(C)C)CN1c2ccccc2CCc2ccccc21 (centres undefined) [Prestw-806],-1.87 ± 0.7
14,C=C1C(=O)O[C@H]2[C@H]1CC/C(C)=C/CC[C@@]1(C)O[C@@H]21 [Prestw-550],-0.245 ± 0.5
15,CCCCOc1ccc(C(=O)CCN2CCCCC2)cc1 [Prestw-264],-1.14 ± 0.17
16,CC(C)(C)CC(C)(C)c1ccc(OCCOCC[N+](C)(C)Cc2ccccc2)cc1 [Prestw-708],-3.55 ± 1.1
17,Cn1nnc2c(C(N)=O)ncn2c1=O [Prestw-1183],0.0815 ± 0.58
18,CC(C)(C)NC(=O)[C@H]1CC[C@H]2[C@@H]3CC[C@H]4NC(=O)C=C[C@]4(C)[C@H]3CC[C@]12C [Prestw-717],0.258 ± 0.81
19,Nc1nc(N)c2nc(-c3ccccc3)c(N)nc2n1 [Prestw-34],-0.393 ± 0.8
20,OCCN1CCN(CC/C=C2/c3ccccc3Sc3ccc(Cl)cc32)CC1 [Prestw-998],-0.12 ± 0.62
21,"Nc1nc(/C(=C/CC(=O)O)C(=O)N[C@@H]2C(=O)N3C(C(=O)O)=CCS[C@H]23)cs1 [CEFTIBUTEN, antibacterial]",-0.595 ± 0.35
22,CCc1cc(Cl)c(OC)c(C(=O)NC[C@@H]2CCCN2CC)c1O [Prestw-932],-1.15 ± 0.6
23,CN(C)CCOC(=O)C(c1ccccc1)C1(O)CCCC1 (centres undefined) [Prestw-1095],0.797 ± 0.89
24,Nc1[nH]c(=O)ncc1F [Prestw-934],0.772 ± 1.1
25,CCC(=O)O[C@]1(C(=O)SCF)[C@H](C)C[C@H]2[C@@H]3C[C@H](F)C4=CC(=O)C=C[C@]4(C)[C@@]3(F)[C@@H](O)C[C@@]21C [Prestw-997],-0.548 ± 0.27
26,"CC(=O)Nc1ccc(S(=O)(=O)c2ccc(NC(C)=O)cc2)cc1 [ACEDAPSONE, antimalarial, leprostatic]",-0.284 ± 0.25
27,CC[N+](C)(CC)CCC[n+]1c(-c2ccccc2)c2cc(N)ccc2c2ccc(N)cc21 [Prestw-792],0.373 ± 0.018

# An excerpt of these results, bar-delimited:
row | SMILES | pThr231Tau/total Tau ratio Z-score
11 | OC(CCN1CCCC1)(c1ccccc1)C1CCCCC1 (centres undefined) [Prestw-844] | 0.203 ± 0.7
12 | CC(C)NCC(O)COc1cccc2[nH]ccc12 (centres undefined) [Prestw-90] | 1.48 ± 1.3

# Remaining list, next part:

row,SMILES,pThr231Tau/total Tau ratio Z-score
1,O=C(O)c1ccccc1Nc1cccc(C(F)(F)F)c1 [Prestw-203],1.58 ± 0.25
2,"OCCc1ccccc1 [PHENYLETHYL ALCOHOL, antimicrobial]",0.00577 ± 1.1
3,Clc1ccc(C(c2ccccc2Cl)C(Cl)Cl)cc1 (centres undefined) [Prestw-1444],-0.679 ± 0.17
4,O=C1O[C@H]([C@@H](O)CO)C(O)=C1O [Prestw-325],0.404 ± 0.39
5,CCOc1nc2cccc(C(=O)O)c2n1Cc1ccc(-c2ccccc2-c2nn[nH]n2)cc1 [Prestw-1258],-0.48 ± 0.33
6,"CCOc1nc2cccc(C(=O)O)c2n1Cc1ccc(-c2ccccc2-c2nn[nH]n2)cc1 [CANDESARTAN CILEXTIL, angiotensin 1 receptor antagonist]",0.0778 ± 0.15
7,Nc1ccc(C(=O)O)c(O)c1 [Prestw-1202],0.156 ± 1.1
8,O=C1Nc2ccc(Cl)cc2[C@@](C#CC2CC2)(C(F)(F)F)O1 [Prestw-1400],-1.12 ± 1.1
9,CCC(C)(C)C(=O)O[C@H]1C[C@@H](C)C=C2C=C[C@H](C)[C@H](CC[C@@H]3C[C@@H](O)CC(=O)O3)[C@H]21 [Prestw-865],-2.74 ± 0.95
10,C[C@@H]1CN(c2c(F)c(F)c3c(=O)c(C(=O)O)cn(C4CC4)c3c2F)C[C@H](C)N1,-0.119 ± 1
11,N=c1nc(N2CCCCC2)cc(N)n1O [K+ channel activator; antihypertensive],-0.87 ± 0.47
12,N=c1nc(N2CCCCC2)cc(N)n1O [Prestw-20],-0.74 ± 0.94
13,CC(=O)Oc1ccc(C(c2ccc(OC(C)=O)cc2)c2ccccn2)cc1 [Prestw-419],-0.326 ± 0.83
14,NNC(=O)c1ccncc1.Nc1ccc(C(=O)O)c(O)c1 [PASINIAZIDE    Therap cat: tuberculostatic],0.979 ± 0.53
15,CCCc1nn(C)c2c(=O)[nH]c(-c3cc(S(=O)(=O)N4CCN(C)CC4)ccc3OCC)nc12 [Prestw-1342],-1.31 ± 0.049
16,CCCNC(C)(C)COC(=O)c1ccccc1 [Prestw-1064],-0.358 ± 0.52
17,CCC1(C)CC(=O)NC1=O (centres undefined) [Prestw-165],-0.0621 ± 1.2
18,NC[C@@H]1O[C@H](O[C@H]2[C@@H](O)[C@H](O[C@@H]3[C@@H](O)[C@H](N)C[C@H](N)[C@H]3O[C@H]3O[C@H](CN)[C@@H](O)[C@H](O)[C@H]3N)O[C@@H]2CO)[C@H](N)[C@@H](O)[C@@H]1O [Prestw-158],-0.761 ± 0.84
19,CC(=O)Nc1ccc(OC(C)=O)cc1,-1.14 ± 1.4
20,NC1CCN(c2c(F)cc3c(=O)c(C(=O)O)cn(C4CC4)c3c2Cl)C1 (centres undefined) [Prestw-1379],-0.779 ± 0.11
21,C[N+](C)(CCOc1ccccc1)Cc1ccccc1.O=C([O-])c1cc2ccccc2cc1O [Prestw-936],-0.0627 ± 0.17
22,CC(NCCc1ccc(O)cc1)C(O)c1ccc(O)cc1 (centres undefined) [Prestw-349],-0.196 ± 1.8
23,CCc1nn(CCCN2CCN(c3cccc(Cl)c3)CC2)c(=O)n1CCOc1ccccc1 [Prestw-1152],0.0551 ± 0.6
24,Cc1nc2sccn2c(=O)c1CCN1CCC(=C(c2ccc(F)cc2)c2ccc(F)cc2)CC1,-0.613 ± 1
25,C[C@H](CCC(=O)O)[C@H]1CC[C@H]2[C@@H]3C(=O)C[C@@H]4CC(=O)CC[C@]4(C)[C@H]3CC(=O)[C@]12C [Prestw-123],1.03 ± 0.14
